# In patent US7749984B2, “Computer-based model for identification and characterization of non-competitive inhibitors of nicotinic acetylcholine receptors and related ligand-gated ion channel receptors” (priority 2003, dated 2010):
# The chains behind the UniProt entries cited, without tags or fusion partners. Residues count along the entry.
# UniProt P04757, 26-499: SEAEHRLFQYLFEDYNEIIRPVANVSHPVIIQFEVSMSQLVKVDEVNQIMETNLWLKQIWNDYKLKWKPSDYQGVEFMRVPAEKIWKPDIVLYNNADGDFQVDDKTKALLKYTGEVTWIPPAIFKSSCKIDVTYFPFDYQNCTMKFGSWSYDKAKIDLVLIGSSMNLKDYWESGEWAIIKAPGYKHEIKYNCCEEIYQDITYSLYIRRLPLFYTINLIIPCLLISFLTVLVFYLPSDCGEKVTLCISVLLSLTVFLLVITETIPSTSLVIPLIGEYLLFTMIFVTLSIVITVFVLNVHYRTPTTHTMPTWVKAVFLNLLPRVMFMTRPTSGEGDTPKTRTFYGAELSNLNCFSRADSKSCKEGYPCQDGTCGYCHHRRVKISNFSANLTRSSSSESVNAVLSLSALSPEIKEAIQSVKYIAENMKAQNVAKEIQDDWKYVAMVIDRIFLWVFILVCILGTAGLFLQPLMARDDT
# UniProt P12392, 21-495: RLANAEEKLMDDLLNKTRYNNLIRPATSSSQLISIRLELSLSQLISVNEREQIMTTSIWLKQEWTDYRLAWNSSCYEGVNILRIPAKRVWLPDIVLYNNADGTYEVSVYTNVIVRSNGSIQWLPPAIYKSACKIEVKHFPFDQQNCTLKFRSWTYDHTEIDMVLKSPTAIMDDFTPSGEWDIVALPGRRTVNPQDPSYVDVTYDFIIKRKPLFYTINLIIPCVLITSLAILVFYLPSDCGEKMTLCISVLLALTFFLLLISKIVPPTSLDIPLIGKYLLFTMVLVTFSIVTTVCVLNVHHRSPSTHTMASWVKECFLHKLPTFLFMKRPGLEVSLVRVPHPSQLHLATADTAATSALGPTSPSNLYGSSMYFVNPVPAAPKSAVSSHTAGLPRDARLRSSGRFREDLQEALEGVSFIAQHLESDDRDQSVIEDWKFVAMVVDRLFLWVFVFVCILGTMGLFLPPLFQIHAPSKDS
# Biological target: α3β4 nAChR (Rattus norvegicus, UniProt P04757+P12392)
# Assay: biochemical
# Format: binding
# Parameters: host or cells: HEK293 (KXα3β4R2)
# Conditions: log K chromatographic equilibrium constant
smiles,measurement,value
CN1CCN(C2=Nc3cc(Cl)ccc3Nc3ccccc32)CC1 [clozapine],Kd,22.4 nM
